Source: paper PMC3575238
Results are given in words; binding and its absence hold for the method and conditions named. Binding seen in cells or lysates may run through a third protein. Some binding calls cover weakened binding; strength is not graded here.

Target: T1, Myb-binding protein 1a (MYBBP1A) (human (endogenous in MCF-7)) (UniProt Q9BQG0)
T1 sequence: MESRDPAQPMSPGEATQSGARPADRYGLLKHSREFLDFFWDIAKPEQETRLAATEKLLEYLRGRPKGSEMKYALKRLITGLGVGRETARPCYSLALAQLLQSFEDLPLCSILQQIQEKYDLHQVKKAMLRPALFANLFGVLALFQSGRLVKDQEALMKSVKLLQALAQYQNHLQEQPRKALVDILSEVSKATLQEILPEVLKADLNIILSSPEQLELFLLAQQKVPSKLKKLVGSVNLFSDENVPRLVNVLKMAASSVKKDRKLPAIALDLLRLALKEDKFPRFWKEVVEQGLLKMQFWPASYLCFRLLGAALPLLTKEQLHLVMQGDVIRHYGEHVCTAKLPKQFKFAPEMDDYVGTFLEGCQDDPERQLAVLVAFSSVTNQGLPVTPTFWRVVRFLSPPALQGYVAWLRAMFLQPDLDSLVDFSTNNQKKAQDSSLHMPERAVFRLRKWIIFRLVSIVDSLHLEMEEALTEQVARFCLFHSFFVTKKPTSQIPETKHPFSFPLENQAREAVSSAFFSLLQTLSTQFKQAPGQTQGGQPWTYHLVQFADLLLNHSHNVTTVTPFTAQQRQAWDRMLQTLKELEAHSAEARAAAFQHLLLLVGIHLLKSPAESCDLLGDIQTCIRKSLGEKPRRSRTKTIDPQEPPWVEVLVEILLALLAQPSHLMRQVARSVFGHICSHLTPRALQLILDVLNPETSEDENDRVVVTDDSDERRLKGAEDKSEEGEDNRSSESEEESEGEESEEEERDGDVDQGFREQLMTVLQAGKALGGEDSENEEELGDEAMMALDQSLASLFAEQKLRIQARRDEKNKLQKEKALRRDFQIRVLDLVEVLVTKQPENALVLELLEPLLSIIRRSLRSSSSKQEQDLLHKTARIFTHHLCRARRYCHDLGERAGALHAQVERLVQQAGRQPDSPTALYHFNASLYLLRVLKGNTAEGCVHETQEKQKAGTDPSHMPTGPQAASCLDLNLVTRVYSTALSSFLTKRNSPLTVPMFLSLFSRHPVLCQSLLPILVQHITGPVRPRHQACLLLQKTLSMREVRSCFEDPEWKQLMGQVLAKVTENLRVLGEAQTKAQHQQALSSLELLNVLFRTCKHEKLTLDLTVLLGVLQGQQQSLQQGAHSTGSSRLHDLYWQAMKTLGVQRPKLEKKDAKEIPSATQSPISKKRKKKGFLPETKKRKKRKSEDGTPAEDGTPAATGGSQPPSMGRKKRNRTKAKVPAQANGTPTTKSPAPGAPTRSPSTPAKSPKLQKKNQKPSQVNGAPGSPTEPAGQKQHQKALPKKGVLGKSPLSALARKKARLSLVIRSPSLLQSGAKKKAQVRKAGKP
Assay: co-IP; MCF-7 cells cultured under detached conditions for 2 h; lysed in TNE buffer (10 mM Tris-HCl pH 7.8, 1% NP-40, 0.15 M NaCl, 1 mM EDTA); immunoprecipitated with normal rabbit IgG or anti-MYBBP1A antibodies on protein G Sepharose; immunoblot for MYBBP1A and p53

“Tumor suppressor p53 (from UniProt P04637 1-393)” was tested, and the binding was “binds”.
